# According to patent US20230374132A1:
# Protein sequences, listed by entry. Tags and fused reporters are not part of them. Lines headed by an entry give the natural chain unless they say otherwise; changes in a name come on top.
# UniProt P07766: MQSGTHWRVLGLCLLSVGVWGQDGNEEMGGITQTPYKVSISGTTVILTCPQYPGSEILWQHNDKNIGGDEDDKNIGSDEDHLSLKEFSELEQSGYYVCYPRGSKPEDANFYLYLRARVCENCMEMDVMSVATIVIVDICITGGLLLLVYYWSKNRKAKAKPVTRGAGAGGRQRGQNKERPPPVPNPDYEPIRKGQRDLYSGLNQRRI
# UniProt P04234: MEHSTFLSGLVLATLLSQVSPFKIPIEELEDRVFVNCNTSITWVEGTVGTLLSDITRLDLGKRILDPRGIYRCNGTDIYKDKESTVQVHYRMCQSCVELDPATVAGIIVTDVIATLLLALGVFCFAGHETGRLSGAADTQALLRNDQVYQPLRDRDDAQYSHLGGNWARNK
# UniProt P09693: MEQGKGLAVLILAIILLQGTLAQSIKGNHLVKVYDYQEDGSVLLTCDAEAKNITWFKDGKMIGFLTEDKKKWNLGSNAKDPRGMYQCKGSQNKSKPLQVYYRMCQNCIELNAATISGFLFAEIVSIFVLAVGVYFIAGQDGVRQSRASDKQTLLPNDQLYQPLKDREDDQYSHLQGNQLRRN
# These are yes or no findings as the source states them, for the method shown. Some binding calls cover weakened binding; strength is not graded here.
# Molecular target: human CD3 complex on Jurkat cells (human) (UniProt P07766+P04234+P09693)
# Experiment: flow cytometry on Jurkat cells (human CD3 complex), method of Example 3.2
row,Binder,binding
1,"hzsp34.78 (antibody, human IgG1, lambda, L234A L235A, V domains shown) VH: EVQLVESGGGLVQPGGSLKLSCAASGFTFGTYAMNWVRQASGKGLEWVGRIRSKYNNYATYYADSVKDRFTISRDDSKSTLYLQMNSLKTEDTAVYYCARHGNFGQSYVSWFAYWGQGTTVTVSS VL: QAVVTQEPSLTVSPGGTVTLTCRSSTGAVTTSNYANWVQQKPGQAPRGLIGGTNKRAPGVPARFSGSLLGDKAALTLLGAQPEDEAEYYCALWYSNLWVFGQGTKLTVLG",binds
2,"hzsp34.79 (antibody, human IgG1, lambda, L234A L235A, V domains shown) VH: EVQLVESGGGLVQPGGSLKLSCAASGFTFNGYAMNWVRQASGKGLEWVGRIRSKYNNYATYYADSVKDRFTISRDDSKSTLYLQMNSLKTEDTAVYYCARHGNFGQSYVSWFAYWGQGTTVTVSS VL: QAVVTQEPSLTVSPGGTVTLTCRSSTGAVTTSNYANWVQQKPGQAPRGLIGGTNKRAPGVPARFSGSLLGDKAALTLLGAQPEDEAEYYCALWYSNLWVFGQGTKLTVLG",binds
3,"hzsp34.83 (antibody, human IgG1, lambda, L234A L235A, V domains shown) VH: EVQLVESGGGLVQPGGSLKLSCAASGFTFNTYAMNWVRQASGKGLEWVGRIRSKANNYATYYADSVKDRFTISRDDSKSTLYLQMNSLKTEDTAVYYCARHGNFGQSYVSWFAYWGQGTTVTVSS VL: QAVVTQEPSLTVSPGGTVTLTCRSSTGAVTTSNYANWVQQKPGQAPRGLIGGTNKRAPGVPARFSGSLLGDKAALTLLGAQPEDEAEYYCALWYSNLWVFGQGTKLTVLG",binds
4,"hzsp34.84 (antibody, human IgG1, lambda, L234A L235A, V domains shown) VH: EVQLVESGGGLVQPGGSLKLSCAASGFTFNTYAMNWVRQASGKGLEWVGRIRSKYGNYATYYADSVKDRFTISRDDSKSTLYLQMNSLKTEDTAVYYCARHGNFGQSYVSWFAYWGQGTTVTVSS VL: QAVVTQEPSLTVSPGGTVTLTCRSSTGAVTTSNYANWVQQKPGQAPRGLIGGTNKRAPGVPARFSGSLLGDKAALTLLGAQPEDEAEYYCALWYSNLWVFGQGTKLTVLG",binds
5,"hzsp34.85 (antibody, human IgG1, lambda, L234A L235A, V domains shown) VH: EVQLVESGGGLVQPGGSLKLSCAASGFTFNTYAMNWVRQASGKGLEWVGRIRSKYNGYATYYADSVKDRFTISRDDSKSTLYLQMNSLKTEDTAVYYCARHGNFGQSYVSWFAYWGQGTTVTVSS VL: QAVVTQEPSLTVSPGGTVTLTCRSSTGAVTTSNYANWVQQKPGQAPRGLIGGTNKRAPGVPARFSGSLLGDKAALTLLGAQPEDEAEYYCALWYSNLWVFGQGTKLTVLG",binds
6,"hzsp34.86 (antibody, human IgG1, lambda, L234A L235A, V domains shown) VH: EVQLVESGGGLVQPGGSLKLSCAASGFTFNTYAMNWVRQASGKGLEWVGRIRSKYNNYATYYADSVKDRFTISRDDSKSTLYLQMNSLKTEDTAVYYCARAGNFGQSYVSWFAYWGQGTTVTVSS VL: QAVVTQEPSLTVSPGGTVTLTCRSSTGAVTTSNYANWVQQKPGQAPRGLIGGTNKRAPGVPARFSGSLLGDKAALTLLGAQPEDEAEYYCALWYSNLWVFGQGTKLTVLG",binds
7,"hzsp34.92 (antibody, human IgG1, lambda, L234A L235A, V domains shown) VH: EVQLVESGGGLVQPGGSLKLSCAASGFTFNTYAMNWVRQASGKGLEWVGRIRSKYNNYATYYADSVKDRFTISRDDSKSTLYLQMNSLKTEDTAVYYCARHGNFGQRYVSWFAYWGQGTTVTVSS VL: QAVVTQEPSLTVSPGGTVTLTCRSSTGAVTTSNYANWVQQKPGQAPRGLIGGTNKRAPGVPARFSGSLLGDKAALTLLGAQPEDEAEYYCALWYSNLWVFGQGTKLTVLG",binds
8,"hzsp34.93 (antibody, human IgG1, lambda, L234A L235A, V domains shown) VH: EVQLVESGGGLVQPGGSLKLSCAASGFTFNTYAMNWVRQASGKGLEWVGRIRSKYNNYATYYADSVKDRFTISRDDSKSTLYLQMNSLKTEDTAVYYCARHGNFGQSAVSWFAYWGQGTTVTVSS VL: QAVVTQEPSLTVSPGGTVTLTCRSSTGAVTTSNYANWVQQKPGQAPRGLIGGTNKRAPGVPARFSGSLLGDKAALTLLGAQPEDEAEYYCALWYSNLWVFGQGTKLTVLG",binds
9,"hzsp34.94 (antibody, human IgG1, lambda, L234A L235A, V domains shown) VH: EVQLVESGGGLVQPGGSLKLSCAASGFTFNTYAMNWVRQASGKGLEWVGRIRSKYNNYATYYADSVKDRFTISRDDSKSTLYLQMNSLKTEDTAVYYCARHGNFGQSYASWFAYWGQGTTVTVSS VL: QAVVTQEPSLTVSPGGTVTLTCRSSTGAVTTSNYANWVQQKPGQAPRGLIGGTNKRAPGVPARFSGSLLGDKAALTLLGAQPEDEAEYYCALWYSNLWVFGQGTKLTVLG",binds
10,"hzsp34.100 (antibody, human IgG1, lambda, L234A L235A, V domains shown) VH: EVQLVESGGGLVQPGGSLKLSCAASGFTFNTYAMNWVRQASGKGLEWVGRIRSKYNNYATYYADSVKDRFTISRDDSKSTLYLQMNSLKTEDTAVYYCARHGNFGGRYVSWFAYWGQGTTVTVSS VL: QAVVTQEPSLTVSPGGTVTLTCRSSTGAVTTSNYANWVQQKPGQAPRGLIGGTNKRAPGVPARFSGSLLGDKAALTLLGAQPEDEAEYYCALWYSNLWVFGQGTKLTVLG",binds
11,"hzsp34.90 (antibody, human IgG1, lambda, L234A L235A, V domains shown) VH: EVQLVESGGGLVQPGGSLKLSCAASGFTFNTYAMNWVRQASGKGLEWVGRIRSKYNNYATYYADSVKDRFTISRDDSKSTLYLQMNSLKTEDTAVYYCARHGNFYQSYVSWFAYWGQGTTVTVSS VL: QAVVTQEPSLTVSPGGTVTLTCRSSTGAVTTSNYANWVQQKPGQAPRGLIGGTNKRAPGVPARFSGSLLGDKAALTLLGAQPEDEAEYYCALWYSNLWVFGQGTKLTVLG",binds
12,"hzsp34.102 (antibody, human IgG1, lambda, L234A L235A, V domains shown) VH: EVQLVESGGGLVQPGGSLKLSCAASGFTFNTYAMNWVRQASGKGLEWVGRIRSKYNNYATYYADSVKDRFTISRDDSKSTLYLQMNSLKTEDTAVYYCARHGNFGQSYVSWFAYWGQGTTVTVSS VL: QAVVTQEPSLTVSPGGTVTLTCGSSTGAVTTSNYANWVQQKPGQAPRGLIGGTNKRAPGVPARFSGSLLGDKAALTLLGAQPEDEAEYYCALWYSNLWVFGQGTKLTVLG",binds
13,"hzsp34.103 (antibody, human IgG1, lambda, L234A L235A, V domains shown) VH: EVQLVESGGGLVQPGGSLKLSCAASGFTFNTYAMNWVRQASGKGLEWVGRIRSKYNNYATYYADSVKDRFTISRDDSKSTLYLQMNSLKTEDTAVYYCARHGNFGQSYVSWFAYWGQGTTVTVSS VL: QAVVTQEPSLTVSPGGTVTLTCRSSTGAVGTSNYANWVQQKPGQAPRGLIGGTNKRAPGVPARFSGSLLGDKAALTLLGAQPEDEAEYYCALWYSNLWVFGQGTKLTVLG",binds
14,"hzsp34.104 (antibody, human IgG1, lambda, L234A L235A, V domains shown) VH: EVQLVESGGGLVQPGGSLKLSCAASGFTFNTYAMNWVRQASGKGLEWVGRIRSKYNNYATYYADSVKDRFTISRDDSKSTLYLQMNSLKTEDTAVYYCARHGNFGQSYVSWFAYWGQGTTVTVSS VL: QAVVTQEPSLTVSPGGTVTLTCRSSTGAVTGSNYANWVQQKPGQAPRGLIGGTNKRAPGVPARFSGSLLGDKAALTLLGAQPEDEAEYYCALWYSNLWVFGQGTKLTVLG",binds
15,"hzsp34.105 (antibody, human IgG1, lambda, L234A L235A, V domains shown) VH: EVQLVESGGGLVQPGGSLKLSCAASGFTFNTYAMNWVRQASGKGLEWVGRIRSKYNNYATYYADSVKDRFTISRDDSKSTLYLQMNSLKTEDTAVYYCARHGNFGQSYVSWFAYWGQGTTVTVSS VL: QAVVTQEPSLTVSPGGTVTLTCRSSTGAVTTRNYANWVQQKPGQAPRGLIGGTNKRAPGVPARFSGSLLGDKAALTLLGAQPEDEAEYYCALWYSNLWVFGQGTKLTVLG",binds
16,"hzsp34.106 (antibody, human IgG1, lambda, L234A L235A, V domains shown) VH: EVQLVESGGGLVQPGGSLKLSCAASGFTFNTYAMNWVRQASGKGLEWVGRIRSKYNNYATYYADSVKDRFTISRDDSKSTLYLQMNSLKTEDTAVYYCARHGNFGQSYVSWFAYWGQGTTVTVSS VL: QAVVTQEPSLTVSPGGTVTLTCRSSTGAVTTSGYANWVQQKPGQAPRGLIGGTNKRAPGVPARFSGSLLGDKAALTLLGAQPEDEAEYYCALWYSNLWVFGQGTKLTVLG",binds
17,"hzsp34.108 (antibody, human IgG1, lambda, L234A L235A, V domains shown) VH: EVQLVESGGGLVQPGGSLKLSCAASGFTFNTYAMNWVRQASGKGLEWVGRIRSKYNNYATYYADSVKDRFTISRDDSKSTLYLQMNSLKTEDTAVYYCARHGNFGQSYVSWFAYWGQGTTVTVSS VL: QAVVTQEPSLTVSPGGTVTLTCRSSTGAVTTSNYANWVQQKPGQAPRGLIGGTNKRAPGVPARFSGSLLGDKAALTLLGAQPEDEAEYYCALWASNLWVFGQGTKLTVLG",binds
18,"hzsp34.109 (antibody, human IgG1, lambda, L234A L235A, V domains shown) VH: EVQLVESGGGLVQPGGSLKLSCAASGFTFNTYAMNWVRQASGKGLEWVGRIRSKYNNYATYYADSVKDRFTISRDDSKSTLYLQMNSLKTEDTAVYYCARHGNFGQSYVSWFAYWGQGTTVTVSS VL: QAVVTQEPSLTVSPGGTVTLTCRSSTGAVTTSNYANWVQQKPGQAPRGLIGGTNKRAPGVPARFSGSLLGDKAALTLLGAQPEDEAEYYCALWYRNLWVFGQGTKLTVLG",binds
19,"hzsp34.110 (antibody, human IgG1, lambda, L234A L235A, V domains shown) VH: EVQLVESGGGLVQPGGSLKLSCAASGFTFNTYAMNWVRQASGKGLEWVGRIRSKYNNYATYYADSVKDRFTISRDDSKSTLYLQMNSLKTEDTAVYYCARHGNFGQSYVSWFAYWGQGTTVTVSS VL: QAVVTQEPSLTVSPGGTVTLTCRSSTGAVTTSNYANWVQQKPGQAPRGLIGGTNKRAPGVPARFSGSLLGDKAALTLLGAQPEDEAEYYCALWYSGLWVFGQGTKLTVLG",binds
20,"hzsp34.111 (antibody, human IgG1, lambda, L234A L235A, V domains shown) VH: EVQLVESGGGLVQPGGSLKLSCAASGFTFNTYAMNWVRQASGKGLEWVGRIRSKYNNYATYYADSVKDRFTISRDDSKSTLYLQMNSLKTEDTAVYYCARHGNFGQSYVSWFAYWGQGTTVTVSS VL: QAVVTQEPSLTVSPGGTVTLTCRSSTGAVGGSNYANWVQQKPGQAPRGLIGGTNKRAPGVPARFSGSLLGDKAALTLLGAQPEDEAEYYCALWYSNLWVFGQGTKLTVLG",binds
21,"hzsp34.112 (antibody, human IgG1, lambda, L234A L235A, V domains shown) VH: EVQLVESGGGLVQPGGSLKLSCAASGFTFNTYAMNWVRQASGKGLEWVGRIRSKYNNYATYYADSVKDRFTISRDDSKSTLYLQMNSLKTEDTAVYYCARHGNFGQSYVSWFAYWGQGTTVTVSS VL: QAVVTQEPSLTVSPGGTVTLTCRSSTGAVTTRGYANWVQQKPGQAPRGLIGGTNKRAPGVPARFSGSLLGDKAALTLLGAQPEDEAEYYCALWYSNLWVFGQGTKLTVLG",binds
